Target: GST-AID (activation-induced cytidine deaminase), wild type (UniProt Q9GZX7)
Assay: enzyme reaction in vitro
Details: deamination; UDG/NaOH cleavage to 30-nt band; 25 nM DNA, 25 mM Tris pH 8.0, 50 mM NaCl, 37 C, 1 h; protein details: GST (pGEX-KG-AID vector); label: internal fluorescein-dT (before tga, near 5' end); single-stranded DNA

Chains of the proteins cited; added tags and fusions are not shown. Lines headed by an entry give the natural chain unless they say otherwise; changes in a name come on top.
UniProt Q9GZX7: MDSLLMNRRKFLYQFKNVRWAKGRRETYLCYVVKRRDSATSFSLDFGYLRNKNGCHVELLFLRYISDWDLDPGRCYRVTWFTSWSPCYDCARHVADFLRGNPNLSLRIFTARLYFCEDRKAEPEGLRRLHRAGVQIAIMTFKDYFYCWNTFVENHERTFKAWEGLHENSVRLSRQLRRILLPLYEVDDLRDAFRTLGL

Sequence: TAAAGGTGAAGAGAGGAGAGAGAAGTAAGCTGAAGAGAGAGAAGGAAGAGAGTGAAGGAG [deamination ssDNA substrate]
- activity on this sequence: active

— patent publication US8095350
